Experimental data from patent US20100003217A1, “Compounds and Pharmaceutical Compositions for the Treatment of Viral Infections” (priority 2008, published 2010).
“And” between values parts separate entries of the source, which are not always exact repeats. Equal entries are not always repeated. This continues a long series; more values of the same kind are listed elsewhere.

Experiment: Rat plasma pharmacokinetics of total radioactivity after [^14C]-Compound 1
Format: in vivo, male Sprague-Dawley rats
Conditions: PO 100 mg/kg; for Plasma total radioactivity concentration, Mean: group mean; for Plasma total radioactivity concentration: Group 2A, individual rats, 100 mg/kg
Description: A preliminary rat metabolism study was conducted with radiolabeled Compound 1. The compound was labeled with [^14C] in the C-8 position of the guanine moiety. The objectives of the study were to determine, 1) the plasma pharmacokinetics of total radioactivity, 2) the time-course of total radioactivity and the amount of 2′-C-methyl guanosine-5′-TP in liver, 3) the major route of excretion, and 4) the metabolic profile in excreta, liver, and plasma.
Isotopically diluted [^14C]-Compound 1 was administered intravenously to male Sprague-Dawley rats at 50 mg/kg or by oral gavage at 100 mg/kg.
The plasma concentration-time data for total radioactivity was analyzed using Microsoft® Office Excel 2003 to obtain the area under the concentration-time curve (AUC). AUC0-24 (area under the concentration-time curve from 0 to 24 h after dosing) was calculated using the linear trapezoidal rule and nominal sampling times. For the IV dose group, concentration at time zero was extrapolated from the concentration data for the first two time points. The maximum (peak) plasma concentrations (Cmax) and the time to peak concentrations (tmax) were the observed values. Descriptive statistics were prepared in Excel.
Radioanalyses of plasma samples were conducted. The plasma concentration data for total radioactivity expressed as μg equivalents/mL are summarized below: […]

In the case of `CC(C)(CO)C(=O)SCCOP(=O)(NCc1ccccc1)OC[C@H]1O[C@@H](n2cnc3c(=O)[nH]c(N)nc32)[C@](C)(O)[C@@H]1O` (stereo partly shown) [[^14C] Compound 1], the “Plasma total radioactivity concentration, Mean” value (1 h) is reported as 0.404 μg Equivalents/mL, the “Plasma total radioactivity concentration, Mean” value (2 h) is reported as 0.869 μg Equivalents/mL and the “Plasma total radioactivity concentration” value (1 h) is reported as 0.305 μg Equivalents/mL and 0.439 μg Equivalents/mL and 0.470 μg Equivalents/mL and 0.401 μg Equivalents/mL. The “Plasma total radioactivity concentration” value (2 h) was 0.634 μg Equivalents/mL and 0.877 μg Equivalents/mL and 1.086 μg Equivalents/mL and 0.879 μg Equivalents/mL.
